Source: patent US20110171183A1
No constants are given. Whether binding was seen depends on the method and setting. Some results given as binding are weak or reduced against the parent protein; the word gives no strength.

Assays:
[1] = target: T1, Podocalyxin-like protein (PODXL), human, on the surface of hESC (HES-3) and IPSC (ES4SKIN, ESIMR90) (human) (UniProt O00592); assay: flow cytometry on hESC and IPSC lines, taken together with the PI exclusion cytotoxicity assay
T1 sequence: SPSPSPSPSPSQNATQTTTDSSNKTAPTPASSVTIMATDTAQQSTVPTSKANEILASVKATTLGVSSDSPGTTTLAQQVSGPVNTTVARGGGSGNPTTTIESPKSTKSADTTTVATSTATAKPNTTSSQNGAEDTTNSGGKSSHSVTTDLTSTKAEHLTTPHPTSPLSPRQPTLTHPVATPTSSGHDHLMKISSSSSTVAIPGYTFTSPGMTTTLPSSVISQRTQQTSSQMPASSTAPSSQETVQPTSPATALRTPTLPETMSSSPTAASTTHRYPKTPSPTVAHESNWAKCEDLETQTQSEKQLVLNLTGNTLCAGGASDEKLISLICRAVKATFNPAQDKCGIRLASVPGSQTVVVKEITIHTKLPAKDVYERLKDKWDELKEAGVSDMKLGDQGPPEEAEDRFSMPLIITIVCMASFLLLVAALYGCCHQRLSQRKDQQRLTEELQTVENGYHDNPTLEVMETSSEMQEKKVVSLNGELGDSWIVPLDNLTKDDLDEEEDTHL

[2] = target: T1, Podocalyxin-like protein (PODXL), human, on the surface of hESC (HES-3) and IPSC (ES4SKIN, ESIMR90) (human); assay: flow cytometry on HES-3, ES4SKIN and ESIMR90 cells, anti-mouse-FITC detection

B1: mAb 84 (antibody, V domains shown)
VH: QVQLQQSGGGLVQPGGSMKLSCVASGFTFSNYWMNWVRQSPEKGLEWVAEIRLKSNNYATHYAESVKGRFTISRDDSKSSVYLQMNNLRAEDTGIYYCTGERAWGQGTTVTVSS
VL: DIELTQSPAIMSASPGEKVTMTCSASSSVNYMYWYQQKPGSSPRLLIYDTSNLASGVPVRFSGSGSGTSYSLTISRMEAEDAATYYCQQWSSYPYTFGGGTKLEIKR
Question: With B1 as the binder, how does the binding [1] read?
Answer: Its binding is “binds”.

Question: And the binding [2]?
Answer: The binding was “binds”.
